PubChem BioAssay AID493246 – Drosophila RNAi Screening Center, 2011

- Test: 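Genes fly cells need to grow and stay alive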 (primary screen)
- System: Drosophila Kc and S2R+ cells
- Knock-down reagent: long dsRNA against Drosophila genes
- Read-out: 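Raw, unnormalised count of remaining cells in each well; per-plate z-scores of cell number underlie the calls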
- Scale: Kc cell number and S2R+ cell number: higher = more cells remaining
- Call rule: 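Counted as a hit if cell number falls by a z-score of at least 3 within its plate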
The screen tested about 21,000 reagents; this is a random part of those with a known target gene and a result. Of all reagents, 429 (2%) got an active call. 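Values are raw and not normalised between plates; calls rest on per-plate z-scores that were not deposited.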 A number with no mark means an inactive call. No sequences are given here. Not given: the amount of reagent, the time to read-out.

CG7079 [DRSC16192] gave Kc cell number, rep 1 = 1.26e6; Kc cell number, rep 2 = 1.29e6; S2R+ cell number, rep 1 = 1.05e6; S2R+ cell number, rep 2 = 1.20e6.
Against Eaf6 [DRSC09901], the entry reads Kc cell number, rep 1 = 1.33e6; Kc cell number, rep 2 = 1.16e6; S2R+ cell number, rep 1 = 1.22e6; S2R+ cell number, rep 2 = 1.26e6.
Mef2 [DRSC07468] showed Kc cell number, rep 1 = 1.44e6; Kc cell number, rep 2 = 1.46e6; S2R+ cell number, rep 1 = 1.02e6; S2R+ cell number, rep 2 = 1.11e6.
Knock-down of CG6793 [DRSC10714] gave: Kc cell number, rep 1 = 1.37e6; Kc cell number, rep 2 = 1.40e6; S2R+ cell number, rep 1 = 1.24e6; S2R+ cell number, rep 2 = 1.34e6.
eg [DRSC11885] scored Kc cell number, rep 1 = 1.39e6; Kc cell number, rep 2 = 1.39e6; S2R+ cell number, rep 1 = 1.33e6; S2R+ cell number, rep 2 = 1.46e6.
Against CG9164 [DRSC19087], the entry reads Kc cell number, rep 1 = 1.56e6; Kc cell number, rep 2 = 1.67e6; S2R+ cell number, rep 1 = 1.04e6; S2R+ cell number, rep 2 = 1.14e6.
Against CG9164 [DRSC20162], the values are Kc cell number, rep 1 = 6.11e5; S2R+ cell number, rep 1 = 8.38e5.
Depletion of CG9287 [DRSC03186] came out at: Kc cell number, rep 1 = 1.49e6; Kc cell number, rep 2 = 1.50e6; S2R+ cell number, rep 1 = 1.03e6; S2R+ cell number, rep 2 = 1.12e6.
Depletion of dome [DRSC19583] gave: Kc cell number, rep 1 = 1.52e6; Kc cell number, rep 2 = 1.55e6; S2R+ cell number, rep 1 = 1.04e6; S2R+ cell number, rep 2 = 1.20e6.
Depletion of idc [DRSC15680] resulted in: Kc cell number, rep 1 = 1.36e6; Kc cell number, rep 2 = 1.49e6; S2R+ cell number, rep 1 = 1.12e6; S2R+ cell number, rep 2 = 1.13e6.
After knock-down of Drep3 [DRSC06312] the results were Kc cell number, rep 1 = 1.27e6; Kc cell number, rep 2 = 1.27e6; S2R+ cell number, rep 1 = 7.04e5; S2R+ cell number, rep 2 = 8.60e5.
After knock-down of CG4815 [DRSC15653], the screen gave Kc cell number, rep 1 = 1.47e6; Kc cell number, rep 2 = 1.49e6; S2R+ cell number, rep 1 = 1.01e6; S2R+ cell number, rep 2 = 1.15e6.

As entered above.
Entry of Eaf6 [DRSC09901] under “Kc cell number, rep 1”: 1.33e6
Under “Kc cell number, rep 1”, CG4815 [DRSC15653] is entered as 1.47e6
